From patent US11051513B2, “Pyridone compounds and agricultural and horticultural fungicides containing the same as active ingredients” (MITSUI CHEMICALS AGRO, INC., priority 2017, dated 2021)
Some entries share one result that the patent states for a list of compounds.

Tests used:
Magnaporthe grisea = type: in vivo; details: 250 ppm sprayed (2.5 ml/pot) on rice (Sachikaze); disease development 6 to 10 days after inoculation
Puccinia recondita = assay: Test Example E: Brown rust on wheat; type: in vivo; details: 250 ppm sprayed (2.5 ml/pot) on wheat (Norin 61); disease development 7 to 10 days after inoculation
Alternaia brassicicola = assay: Test Example C: Alternaria sooty spot on cabbage; details: 250 ppm sprayed (2.5 ml/pot) on cabbage (Shikidori); disease development 2 to 3 days after inoculation
Botrytis cinerea = assay: Test Example B: Gray mold on tomato; details: 250 ppm sprayed (2.5 ml/pot) on tomato (Oogata Fukuju); disease development 2 to 3 days after inoculation

In the case of Cc1ccc(C)c(-c2cc(Br)c(=O)n(CC(F)F)c2-c2ccc(F)cc2)c1 [compound 481], the control value (Magnaporthe grisea) is reported as > 50% and the control value (Puccinia recondita) is reported as > 50%.
With CCn1c(-c2ccc(F)cc2)c(-c2ccc(Cl)cc2Cl)cc(I)c1=O [compound 362] the control value (Alternaia brassicicola) was > 50%, the control value (Magnaporthe grisea) was > 50% and the control value (Puccinia recondita) was > 50%.
N#Cc1ccc(-c2c(-c3cc(Cl)ccc3Cl)cc(Br)c(=O)n2CC(F)F)cc1 [compound 438] was tested, and the control value (Magnaporthe grisea) was > 50% and the control value (Botrytis cinerea) was > 50%.
In the case of Cn1c(-c2ccccc2)c(-c2cccc(F)c2Cl)cc(Br)c1=O [compound 98], the control value (Magnaporthe grisea) is reported as > 50%, the control value (Botrytis cinerea) is reported as > 50% and the control value (Puccinia recondita) is reported as > 50%.
For C#Cc1ccc(-c2c(-c3cc(F)cc(F)c3Cl)cc(Br)c(=O)n2C)cc1 [compound 326], the control value (Alternaia brassicicola) was > 50%, the control value (Magnaporthe grisea) was > 50% and the control value (Puccinia recondita) was > 50%.
With Cn1c(-c2cc(F)cc(F)c2)c(-c2cc(F)ccc2Cl)cc(Cl)c1=O [compound 144] the control value (Magnaporthe grisea) was > 50%, the control value (Botrytis cinerea) was > 50% and the control value (Puccinia recondita) was > 50%.
In the case of CCn1c(-c2cc(F)cc(F)c2)c(-c2ccccc2Cl)cc(Br)c1=O [compound 205], the control value (Magnaporthe grisea) is reported as > 50%, the control value (Botrytis cinerea) is reported as > 50% and the control value (Puccinia recondita) is reported as > 50%.
In the case of COc1cccc(-c2cc(Cl)c(=O)n(C)c2-c2ccccc2)c1Cl [compound 118], the control value (Magnaporthe grisea) is reported as > 50%, the control value (Botrytis cinerea) is reported as > 50% and the control value (Puccinia recondita) is reported as > 50%.
With Cn1c(-c2ccc(F)cc2)c(-c2ccc(Cl)cc2Cl)ccc1=O [compound 355] the control value (Alternaia brassicicola) was > 50% and the control value (Magnaporthe grisea) was > 50%.
In the case of Cn1c(-c2ccc(C#N)cc2)c(-c2ccccc2Cl)ccc1=O [compound 332], the control value (Alternaia brassicicola) is reported as > 50% and the control value (Magnaporthe grisea) is reported as > 50%.
With CN1C(=O)CCC(c2ccc(Br)cc2Cl)=C1c1ccc(F)cc1 [compound 381] the control value (Magnaporthe grisea) was > 50% and the control value (Puccinia recondita) was > 50%.
For CCn1c(-c2ccc(OC)cc2)c(-c2cccc(OC)c2Cl)cc(Cl)c1=O [compound 121], the control value (Magnaporthe grisea) was > 50% and the control value (Puccinia recondita) was > 50%.
With CCn1c(-c2cc(F)cc(F)c2)c(-c2cc(OC)ccc2Cl)ccc1=O [compound 176] the control value (Alternaia brassicicola) was > 50%, the control value (Magnaporthe grisea) was > 50% and the control value (Botrytis cinerea) was > 50%. The control value (Puccinia recondita) was > 50%.
For CCOc1cccc(-c2cc(Cl)c(=O)n(CC)c2-c2ccc(F)cc2)c1Cl [compound 265], the control value (Magnaporthe grisea) was > 50%, the control value (Botrytis cinerea) was > 50% and the control value (Puccinia recondita) was > 50%.
In the case of CCn1c(-c2cc(F)c(F)c(OC)c2)c(-c2cc(F)ccc2Cl)ccc1=O [compound 185], the control value (Magnaporthe grisea) is reported as > 50% and the control value (Botrytis cinerea) is reported as > 50%.
In the case of CCn1c(-c2ccccc2)c(-c2ccccc2Br)cc(Br)c1=O [compound 537], the control value (Alternaia brassicicola) is reported as > 50%, the control value (Magnaporthe grisea) is reported as > 50% and the control value (Botrytis cinerea) is reported as > 50%. For the same compound, the control value (Puccinia recondita) was > 50%.
For Cn1c(-c2cc(F)cc(F)c2)c(-c2cc(F)ccc2Cl)cc(Br)c1=O [compound 145], the control value (Magnaporthe grisea) was > 50%, the control value (Botrytis cinerea) was > 50% and the control value (Puccinia recondita) was > 50%.
CCn1c(-c2cc(F)c(F)c(F)c2)c(-c2cc(F)ccc2Cl)cc(Br)c1=O [compound 172] was tested, and the control value (Magnaporthe grisea) was > 50%, the control value (Botrytis cinerea) was > 50% and the control value (Puccinia recondita) was > 50%.
For CCn1c(-c2ccc(OCOC)cc2)c(-c2cc(F)cc(F)c2Cl)ccc1=O [compound 223], the control value (Alternaia brassicicola) was > 50%, the control value (Magnaporthe grisea) was > 50% and the control value (Botrytis cinerea) was > 50%. For the same compound, the control value (Puccinia recondita) was > 50%.
With COc1cc(OC)c(Cl)c(-c2ccc(=O)n(C)c2-c2ccccc2)c1 [compound 2] the control value (Magnaporthe grisea) was > 50%, the control value (Botrytis cinerea) was > 50% and the control value (Puccinia recondita) was > 50%.
CCn1c(-c2ccc(F)cc2)c(-c2ccc(Cl)cc2Cl)cc(OC)c1=O [compound 364] was tested, and the control value (Alternaia brassicicola) was > 50% and the control value (Magnaporthe grisea) was > 50%.
CCn1c(-c2ccc(Br)cc2)c(-c2cc(F)cc(F)c2Cl)ccc1=O [compound 308] was tested, and the control value (Alternaia brassicicola) was > 50%, the control value (Magnaporthe grisea) was > 50% and the control value (Botrytis cinerea) was > 50%. For the same compound, the control value (Puccinia recondita) was > 50%.
In the case of N#Cc1ccc(-c2c(-c3cc(Cl)ccc3Cl)ccc(=O)n2CC(F)F)cc1 [compound 426], the control value (Magnaporthe grisea) is reported as > 50% and the control value (Puccinia recondita) is reported as > 50%.
In the case of CCn1c(-c2ccccc2)c(-c2ccccc2Br)ccc1=O [compound 535], the control value (Alternaia brassicicola) is reported as > 50%, the control value (Magnaporthe grisea) is reported as > 50% and the control value (Botrytis cinerea) is reported as > 50%. For the same compound, the control value (Puccinia recondita) was > 50%.
In the case of CCn1c(-c2cc(F)cc(F)c2)c(-c2cc(F)ccc2Cl)cc(Br)c1=O [compound 139], the control value (Magnaporthe grisea) is reported as > 50%, the control value (Botrytis cinerea) is reported as > 50% and the control value (Puccinia recondita) is reported as > 50%.
CCn1c(-c2ccc(C#N)cc2)c(-c2ccccc2Cl)cc(Br)c1=O [compound 329] was tested, and the control value (Alternaia brassicicola) was > 50%, the control value (Magnaporthe grisea) was > 50% and the control value (Botrytis cinerea) was > 50%. For the same compound, the control value (Puccinia recondita) was > 50%.
For CCn1c(-c2ccccc2)c(-c2ccccc2Br)cc(Cl)c1=O [compound 536], the control value (Alternaia brassicicola) was > 50%, the control value (Magnaporthe grisea) was > 50% and the control value (Botrytis cinerea) was > 50%. The control value (Puccinia recondita) was > 50%.
In the case of C#Cc1ccc(-c2c(-c3cc(F)cc(F)c3Cl)ccc(=O)n2CC)cc1 [compound 323], the control value (Alternaia brassicicola) is reported as > 50%, the control value (Magnaporthe grisea) is reported as > 50% and the control value (Botrytis cinerea) is reported as > 50%. For the same compound, the control value (Puccinia recondita) was > 50%.
For COc1ccc(-c2c(-c3cccc(OC)c3Cl)ccc(=O)n2C)cc1 [compound 123], the control value (Alternaia brassicicola) was > 50%, the control value (Magnaporthe grisea) was > 50% and the control value (Botrytis cinerea) was > 50%. For the same compound, the control value (Puccinia recondita) was > 50%.
With CCn1c(-c2ccc(F)cc2)c(-c2cc(F)cc(F)c2F)cc(Cl)c1=O [compound 67] the control value (Alternaia brassicicola) was > 50% and the control value (Magnaporthe grisea) was > 50%.
For CCn1c(-c2ccc(C#N)cc2)c(-c2ccccc2Cl)ccc1=O [compound 330], the control value (Alternaia brassicicola) was > 50% and the control value (Magnaporthe grisea) was > 50%.
In the case of CCn1c(-c2cc(F)c(F)c(OC)c2)c(-c2cc(F)ccc2Cl)cc(Cl)c1=O [compound 187], the control value (Magnaporthe grisea) is reported as > 50% and the control value (Botrytis cinerea) is reported as > 50%.
For CCn1c(-c2ccc(F)cc2)c(-c2cc(C)ccc2C)cc(Br)c1=O [compound 479], the control value (Magnaporthe grisea) was > 50% and the control value (Botrytis cinerea) was > 50%.
In the case of Cc1ccc(-c2cc(Br)c(=O)n(C)c2-c2ccc(F)cc2)c(Cl)c1 [compound 396], the control value (Magnaporthe grisea) is reported as > 50% and the control value (Puccinia recondita) is reported as > 50%.
In the case of CCn1c(-c2ccc(F)cc2)c(-c2cccc(OCC(F)F)c2Cl)cc(Cl)c1=O [compound 268], the control value (Alternaia brassicicola) is reported as > 50% and the control value (Magnaporthe grisea) is reported as > 50%.
In the case of CCn1c(-c2ccc(OC)cc2)c(-c2cccc(OC)c2Cl)cc(Br)c1=O [compound 122], the control value (Magnaporthe grisea) is reported as > 50% and the control value (Puccinia recondita) is reported as > 50%.
CCn1c(-c2ccc(F)cc2)c(-c2ccc(Br)cc2Cl)cc(Br)c1=O [compound 388] was tested, and the control value (Magnaporthe grisea) was > 50% and the control value (Puccinia recondita) was > 50%.
With CCn1c(-c2ccc(F)cc2)c(-c2cccc(OCC(F)(F)F)c2Cl)cc(Cl)c1=O [compound 269] the control value (Magnaporthe grisea) was > 50%, the control value (Botrytis cinerea) was > 50% and the control value (Puccinia recondita) was > 50%.
Cn1c(-c2ccc(F)cc2)c(-c2ccc(Br)cc2Cl)ccc1=O [compound 382] was tested, and the control value (Magnaporthe grisea) was > 50% and the control value (Puccinia recondita) was > 50%.
With Cn1c(-c2ccccc2)c(-c2ccccc2Cl)cc(Br)c1=O [compound 130] the control value (Magnaporthe grisea) was > 50% and the control value (Botrytis cinerea) was > 50%.
In the case of CCn1c(-c2cc(F)c(F)c(OC)c2)c(-c2cc(F)ccc2Cl)cc(Br)c1=O [compound 189], the control value (Magnaporthe grisea) is reported as > 50% and the control value (Botrytis cinerea) is reported as > 50%.
